US5212179A, “Piperidine derivatives” (John Wyeth and Brother Limited, priority 1980, dated 1993)
The name of at least one read-out is uncertain.

System: p-chloroamphetamine (pCA) induced hyperactivity
Assay: Inhibition of p-chloroamphetamine (pCA) induced hyperactivity in mice
Assay type: in vivo
Conditions: female mice, 50 mg/kg po, pCA 20 mg/kg ip, 10-30 minutes post pCA; listed as 1-Benzoyl-3-[1-(5,6,7,8-tetrahydro-naphth-2-ylmethyl)poperid-4-yl]urea
Protocol: The following test procedure was used to test for ability to inhibit p-chloroamphetamine induced hyperactivity.
Three groups of 4 female mice (20-24 g) receive the test compounds (50 mg/kg po) and a fourth group the requisite volume of vehicle. Thirty minutes later all the animals are given 20 mg/kg p-chloroamphetamine (pCA) ip. The grouped mice are placed immediately in square plastic cages in activity monitors and their motor activity recorded over the period 10-30 minutes post pCA. This procedure is repeated three more times so that four groups of mice are used per treatment and each activity monitor is used with all treatments in turn. The inhibition of pCA induced hyperactivity is calculated thus: [formula] where C=mean activity of control groups 10-30 minutes post pCA.
T=mean activity of treated groups 10-30 minutes post pCA.
This test is used as an in vivo screen for detection of 5-hydroxytryptamineuptake inhibitors.
Compounds giving >50% inhibition are considered of special interest. In such a test the following compounds were particularly active: […]

## O=C(NC(=O)c1ccccc1)NC1CCN(Cc2ccc3c(c2)CCCC3)CC1 [Example 14, 1-Benzoyl-3-[1-(5,6,7,8-tetrahydro-naphth-2-ylmethyl)piperid-4-yl]urea]
  % Inhibition of pCA induced hyperactivity: 73.5%
